Experimental data reported in patent US20180140679A1, “MODULATION OF AXL RECEPTOR ACTIVITY IN COMBINATION WITH CYTOREDUCTIVE THERAPY” (THE BOARD OF TRUSTEES OF THE LELAND STANFORD JUNIOR …, priority 2016, published 2018).
Where a chain is given by its changes, count along the chain named. Names and notes keep the numbering of the source. These are yes or no findings as the source states them, for the method shown. Some entries that bind do so weakly or less than the wild type.

T1: mouse Gas6 (mouse, UniProt Q61592 115-674, limits assumed)
T1 construct: Recombinant in KinExA (detected through a 6xHIS tag); also called mGas6
T1 sequence (looked up): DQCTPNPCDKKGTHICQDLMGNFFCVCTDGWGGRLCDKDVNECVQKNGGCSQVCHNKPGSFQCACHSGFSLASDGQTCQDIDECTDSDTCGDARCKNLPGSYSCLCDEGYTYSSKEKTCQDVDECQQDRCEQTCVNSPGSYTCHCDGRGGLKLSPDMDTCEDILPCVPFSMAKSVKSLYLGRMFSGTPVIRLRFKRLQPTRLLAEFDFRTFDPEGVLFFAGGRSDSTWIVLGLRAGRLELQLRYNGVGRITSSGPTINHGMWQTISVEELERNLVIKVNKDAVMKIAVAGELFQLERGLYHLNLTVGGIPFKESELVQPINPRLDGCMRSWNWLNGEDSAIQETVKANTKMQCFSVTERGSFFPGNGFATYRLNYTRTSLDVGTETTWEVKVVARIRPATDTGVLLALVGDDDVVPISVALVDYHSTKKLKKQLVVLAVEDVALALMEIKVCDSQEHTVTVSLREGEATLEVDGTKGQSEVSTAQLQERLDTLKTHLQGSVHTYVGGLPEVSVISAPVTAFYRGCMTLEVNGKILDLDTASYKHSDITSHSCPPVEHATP

B1: MYD1-Fc (Fc fusion)
chain: APRGTQAEESPFVSNPGNITGARGLTGTLRCQLQVQGEPPEVHWLRDGQILELADSTQTQVPLGEDEQGDWIVASQLRITSLQLSDTGQYQCLVFLGHQTFVSQPGYVRLEGLPYFLEEPEDRTVAANTPFNLSCQAQGPPEPVDLLWLQDAVPLATAPGHGPQRSLHVPGLNKTSSFSCEAHNAKGVTTSRTATITVLPQQPRNLHLVSRQPTELEVAWTPGLSGIYPLTHCTLQAVLSNDGMGIQAGEPDPPEEPLTSQASVPPHQLRLGSLHPHTPYHIRVACTSSQGPSSWTHWLPVETPEGVPLGPPENISATRNGSQAFVHWQEPRAPLQGTLLGYRLAYQGQDTPEVLMDIGLRQEVTLELQGDGSVSNLTVCVAAYTAAGDGPWSLPVPLEAWRPGQAQPVHQLVKEPSTPAFS
notes: Dimeric Fc fusion made in HEK293; MYD1 mutations deduced as MYD1-72 minus A72V; not shown: Fc domain
B2: MYD1-72 Fc (Fc fusion)
chain: B1 chain with A54V
notes: Dimeric Fc fusion made in HEK293; also called MYD-72 Fc; second generation Axl decoy receptor; not shown: Fc domain

Molecular target: T1, mouse Gas6
Experiment: KinExA

Row | Binder | binding
1 | B1 | binds
2 | B2 | binds
